Data reported in paper PMC3857619.
These are yes or no findings as the source states them, for the method shown. In cells and extracts the contact can be indirect. Here binding means that the protein was enriched with, or labelled near, the bait; the list need not be complete.

Amino acid sequences for entries named in this document (tags omitted).
UniProt P26599: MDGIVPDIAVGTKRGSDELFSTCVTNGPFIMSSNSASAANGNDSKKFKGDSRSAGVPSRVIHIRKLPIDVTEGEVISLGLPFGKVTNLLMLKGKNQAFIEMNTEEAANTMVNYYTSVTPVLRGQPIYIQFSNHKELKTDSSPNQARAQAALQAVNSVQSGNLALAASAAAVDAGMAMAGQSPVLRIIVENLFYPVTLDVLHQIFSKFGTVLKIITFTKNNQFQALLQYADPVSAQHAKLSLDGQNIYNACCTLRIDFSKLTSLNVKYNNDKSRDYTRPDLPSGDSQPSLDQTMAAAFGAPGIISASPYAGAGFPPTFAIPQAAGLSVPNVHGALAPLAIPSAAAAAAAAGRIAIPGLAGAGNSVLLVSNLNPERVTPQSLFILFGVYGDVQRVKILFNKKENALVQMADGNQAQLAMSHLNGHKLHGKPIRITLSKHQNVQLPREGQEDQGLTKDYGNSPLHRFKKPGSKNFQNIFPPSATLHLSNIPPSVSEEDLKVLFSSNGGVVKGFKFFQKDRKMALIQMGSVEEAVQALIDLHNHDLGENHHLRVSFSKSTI
UniProt P17844: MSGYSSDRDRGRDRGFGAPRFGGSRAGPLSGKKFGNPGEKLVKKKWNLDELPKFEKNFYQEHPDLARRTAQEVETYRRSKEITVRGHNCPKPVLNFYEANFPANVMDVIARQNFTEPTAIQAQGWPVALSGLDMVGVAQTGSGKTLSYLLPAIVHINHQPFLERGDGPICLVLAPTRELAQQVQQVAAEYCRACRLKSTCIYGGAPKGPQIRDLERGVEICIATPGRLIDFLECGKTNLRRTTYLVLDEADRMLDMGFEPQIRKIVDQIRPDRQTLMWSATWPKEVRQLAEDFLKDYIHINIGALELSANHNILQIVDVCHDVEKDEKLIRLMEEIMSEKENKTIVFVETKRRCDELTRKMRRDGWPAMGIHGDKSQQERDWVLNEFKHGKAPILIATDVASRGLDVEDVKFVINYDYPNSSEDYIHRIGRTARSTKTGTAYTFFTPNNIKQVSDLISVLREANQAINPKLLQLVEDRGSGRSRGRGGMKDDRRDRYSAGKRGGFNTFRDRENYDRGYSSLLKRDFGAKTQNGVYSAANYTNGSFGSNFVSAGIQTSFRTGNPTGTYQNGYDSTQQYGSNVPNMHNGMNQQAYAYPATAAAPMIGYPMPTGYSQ
UniProt Q9NR30: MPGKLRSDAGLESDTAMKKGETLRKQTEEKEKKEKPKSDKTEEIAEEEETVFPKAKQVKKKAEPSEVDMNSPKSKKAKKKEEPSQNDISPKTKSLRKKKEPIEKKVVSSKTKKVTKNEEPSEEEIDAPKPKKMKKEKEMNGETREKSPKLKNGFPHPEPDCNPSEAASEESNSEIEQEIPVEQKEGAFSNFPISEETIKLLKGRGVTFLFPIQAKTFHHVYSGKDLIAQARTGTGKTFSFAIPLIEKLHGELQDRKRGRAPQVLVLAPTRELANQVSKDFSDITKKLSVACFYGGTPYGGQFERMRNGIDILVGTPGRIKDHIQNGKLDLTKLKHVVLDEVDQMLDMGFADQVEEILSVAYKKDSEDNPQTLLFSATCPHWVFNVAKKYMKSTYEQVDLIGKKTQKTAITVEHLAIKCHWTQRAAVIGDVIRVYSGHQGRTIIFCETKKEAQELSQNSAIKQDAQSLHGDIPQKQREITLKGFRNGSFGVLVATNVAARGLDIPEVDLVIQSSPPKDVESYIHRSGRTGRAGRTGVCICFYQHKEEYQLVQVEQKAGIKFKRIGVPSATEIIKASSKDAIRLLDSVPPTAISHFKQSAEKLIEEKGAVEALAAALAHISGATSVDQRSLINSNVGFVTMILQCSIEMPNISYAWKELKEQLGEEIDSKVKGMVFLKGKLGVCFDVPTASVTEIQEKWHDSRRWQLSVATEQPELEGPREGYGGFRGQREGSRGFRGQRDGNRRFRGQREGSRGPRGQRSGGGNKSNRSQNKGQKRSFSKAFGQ

Each substance was assayed against polypyrimidine tract-binding protein (human (endogenous in MCF7 and HeLa)) (UniProt P26599) (assay: affinity purification with mass spectrometry; anti-PTB immunoprecipitation from nuclear and cytoplasmic lysates of MCF7 cells, mock or TRAIL for 3 h; SDS-PAGE, LC-MS/MS; three independent occasions).

binding | Substance
binds | DDX5 (from UniProt P17844 1-614)
binds | DDX21 (from UniProt Q9NR30 1-783)
binds | hnRNPK (from UniProt P61978 1-463)
